{"source": "patent US8415312B2", "about": "“Compound which is a nystatin derivative” (Biosergen AS, priority 2007, dated 2013)", "key": {"[1]": {"test_system": "mice (C57B1/6xDBA/2)F1 B6D2F1", "description": "Male mice of hybrids of first generation (C57B1/6xDBA/2)F1 B6D2F1, weight 20-22 g., received from the Central farm. “Kryukovo” of Russian Academies of Medical Science (RAMS) were used. Animals were maintained in a vivarium in plastic cages (with hardwood bedding in environmentally controlled conditions: 24±1° C., 12/12 hours light/dark cycle) on a standard diet of bricketed forages with easy access to drinking water (ad libitum). After a 2-week quarantine period, healthy animals were used in experimental work.\nThe solutions were prepared as follows: dry antibiotic substances (5 mg) were mixed with dry sodium deoxycholate (4.1 mg) in a sterile glass vial. 10 mL of phosphate buffer (NaH2PO4—1.59 g; Na2HPO4—0.96 g; H2O—to 100 mL) was added to the mix and the suspension was immediately subjected to vigorous shaking for 10 minutes until homogeneous suspensions were formed.\nPreparations of amphotericin B and S44HP were also prepared in the same way.\nThe antibiotic preparations were singly injected into the mice's tail vein within 1-1.5 hours after the preparation of solutions. […] Each antibiotic was used in a range of doses resulting in 0% to 100% lethality and a minimum of 3 intermediate doses. Animals were randomized into groups, each containing 6 mice."}, "[2]": {"test_system": "Candida albicans", "experiment": "Neutropenic mouse model of disseminated candidosis", "format": "in vivo", "conditions": "neutropenic mice, fungal load in kidneys after 4 days treatment", "description": "Mice were rendered neutropenic by injection with cyclophosphamide monohydrate (Fluka, BioChemika, Sigma-Aldrich, Switzerland) intraperitoneally 2×100 mg/kg of body weight 1 day before infection."}}, "note": "Some entries share one result that the patent states for a list of compounds."}
{"smiles": "CC1C=CC=CC=CC=CC=CC=CC=CC(OC2OC(C)C(O)C(N)C2O)CC2OC(O)(CC(O)C(O)CCC(O)CC(O)CC(O)CC(=O)OC(C)C(C)C1O)CC(O)C2C(=O)NCCN(C)C.NC(CCC(=O)O)C(=O)O", "note": "(centres unmarked) [Compound 28]", "values": [{"measurement": "acute toxicity, times lower than amphotericin B", "setting": "[1]", "value": "5-7 times"}, {"measurement": "efficacy in treatment of disseminated candidosis, times better than amphotericin B", "setting": "[2]", "value": "5-10 times"}]}
